PubChem BioAssay AID504786 – Drosophila RNAi Screening Center, 2011

Aim: 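Positive regulators of HIF-driven reporter output in Drosophila cells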 (primary screen)
System: Drosophila S2 cells with a stable HIF luciferase reporter
Reagents: long dsRNA against Drosophila genes, about 0.2 µg dsRNA per well of a 384-well plate
Time to read-out: three days of knock-down, then 20 h of DFO before reading
Conditions: desferrioxamine (DFO) at 100 µM, an iron chelator that mimics hypoxia, for 20 h
Detection: 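Firefly luciferase driven by the mouse ldh-a hypoxia-response element, measured after 20 h of 100 µM DFO; z-scores per plate, higher means more signal lost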
Reading the numbers: z-score: higher = stronger loss of HIF reporter signal
The deposit covers about 21,000 reagents; shown is a random part of those that have a named target and a result. 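Primary screen; positive scores mean lost reporter signal, so the sign may be inverted from the usual convention.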 A plus sign joins genes that one reagent is predicted to hit. Not all columns of the deposit are shown. Reagent sequences are not shown.

The first 2 records as a preview:
Rab21 [DRSC20968]
- z-score, replicate 1: -0.4

CG11841 [DRSC14399]
- z-score, replicate 1: -0.1

The listing, repeating the preview:
Rab21 [DRSC20968]
- z-score, replicate 1: -0.4

CG11841 [DRSC14399]
- z-score, replicate 1: -0.1

CG9386 [DRSC16485]
- z-score, replicate 1: -0.2

CG6686 [DRSC02979]
- z-score, replicate 1: 1.5

CG14756 [DRSC06491]
- z-score, replicate 1: -0.2

Unc-115a [DRSC12749]
- z-score, replicate 1: -0.2

CG9485 [DRSC04557]
- z-score, replicate 1: 0.2

Elk [DRSC07608]
- z-score, replicate 1: -0.1

CG13069 [DRSC09952]
- z-score, replicate 1: -0.3

asf1 [DRSC11324]
- z-score, replicate 1: -0.5

CG10737 [DRSC05999]
- z-score, replicate 1: -0.2

hop [DRSC20340]
- z-score, replicate 1: 0.3

CycD [DRSC20233]
- z-score, replicate 1: 0.5

rno [DRSC08584]
- z-score, replicate 1: 0.1

elB [DRSC01379]
- z-score, replicate 1: -0.2

elB [DRSC03527]
- z-score, replicate 1: 0.8

RhoGEF2 [DRSC07531]
- z-score, replicate 1: -0.3

Alg12 [DRSC16416]
- z-score, replicate 1: -0.3

CG15721 [DRSC19688]
- z-score, replicate 1: -0.3

CG17364 [DRSC10269]
- z-score, replicate 1: -0.2

CG17364 [DRSC10270]
- z-score, replicate 1: -0.1

CG43861 + CG12508 (retired record) [DRSC02170]
- z-score, replicate 1: -0.3

Kap3 [DRSC19426]
- z-score, replicate 1: -0.3

Pof [DRSC04405]
- z-score, replicate 1: -0.3

CSN4 [DRSC07350]
- z-score, replicate 1: 1.8

CG2812 [DRSC04319]
- z-score, replicate 1: -0.4

Phm [DRSC04639]
- z-score, replicate 1: -0.2
